No constants are given. Whether binding was seen depends on the method and setting. For part of these data: Binding calls can cover weak binding; strength is not graded here. Sequences can lack the tags named with a protein. For part of these data: Binding seen in cells or lysates may run through a third protein.

Protein sequences, listed by entry. Tags and fused reporters are not part of them. Lines headed by an entry give the natural chain unless they say otherwise; changes in a name come on top.
UniProt Q6XZF7: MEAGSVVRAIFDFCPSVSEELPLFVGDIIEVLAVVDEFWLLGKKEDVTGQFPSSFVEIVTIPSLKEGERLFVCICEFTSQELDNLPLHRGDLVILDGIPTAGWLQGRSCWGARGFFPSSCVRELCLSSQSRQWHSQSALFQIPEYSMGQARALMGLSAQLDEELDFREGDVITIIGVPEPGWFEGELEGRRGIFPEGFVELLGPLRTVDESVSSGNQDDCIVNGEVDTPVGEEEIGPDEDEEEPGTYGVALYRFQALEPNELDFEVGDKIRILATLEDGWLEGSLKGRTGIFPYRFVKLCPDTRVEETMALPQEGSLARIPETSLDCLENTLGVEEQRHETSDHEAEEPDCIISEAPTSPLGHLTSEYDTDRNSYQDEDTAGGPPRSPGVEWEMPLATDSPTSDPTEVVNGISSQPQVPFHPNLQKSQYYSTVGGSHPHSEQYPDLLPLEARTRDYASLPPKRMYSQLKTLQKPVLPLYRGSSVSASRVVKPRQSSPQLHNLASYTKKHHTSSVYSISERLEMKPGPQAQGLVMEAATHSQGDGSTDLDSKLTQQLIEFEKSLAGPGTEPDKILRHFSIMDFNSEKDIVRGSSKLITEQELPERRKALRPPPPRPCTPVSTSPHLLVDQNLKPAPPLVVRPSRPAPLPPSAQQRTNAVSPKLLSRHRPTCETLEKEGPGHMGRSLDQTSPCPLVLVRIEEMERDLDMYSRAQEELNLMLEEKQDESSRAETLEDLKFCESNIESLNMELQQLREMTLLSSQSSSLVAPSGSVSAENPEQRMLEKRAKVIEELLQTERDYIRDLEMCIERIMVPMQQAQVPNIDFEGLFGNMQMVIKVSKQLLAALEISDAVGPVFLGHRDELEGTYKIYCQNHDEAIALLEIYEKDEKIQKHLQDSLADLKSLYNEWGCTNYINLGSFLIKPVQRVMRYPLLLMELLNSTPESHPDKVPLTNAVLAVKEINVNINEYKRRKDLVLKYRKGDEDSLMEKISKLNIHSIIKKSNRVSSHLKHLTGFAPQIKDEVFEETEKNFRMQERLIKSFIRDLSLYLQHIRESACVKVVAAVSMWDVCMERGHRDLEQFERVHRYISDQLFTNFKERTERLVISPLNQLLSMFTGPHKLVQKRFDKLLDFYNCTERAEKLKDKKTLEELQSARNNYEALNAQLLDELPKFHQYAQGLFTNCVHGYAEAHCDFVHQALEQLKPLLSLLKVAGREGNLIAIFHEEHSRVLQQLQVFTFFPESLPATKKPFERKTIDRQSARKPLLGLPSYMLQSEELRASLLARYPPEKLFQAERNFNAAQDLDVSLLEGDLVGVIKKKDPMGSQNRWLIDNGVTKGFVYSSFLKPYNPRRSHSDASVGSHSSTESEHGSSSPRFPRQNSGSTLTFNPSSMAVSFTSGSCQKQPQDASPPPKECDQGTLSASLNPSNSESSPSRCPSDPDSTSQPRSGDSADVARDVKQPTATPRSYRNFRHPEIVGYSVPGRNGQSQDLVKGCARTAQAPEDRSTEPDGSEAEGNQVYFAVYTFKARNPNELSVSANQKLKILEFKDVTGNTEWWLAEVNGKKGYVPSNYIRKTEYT

The values below come from paper doi:10.1101/2024.04.10.588880.

In experiment [1] the target is T1, GST-tagged wild-type (WT) Dynamin 2 (rat) (UniProt P39052).
T1 sequence: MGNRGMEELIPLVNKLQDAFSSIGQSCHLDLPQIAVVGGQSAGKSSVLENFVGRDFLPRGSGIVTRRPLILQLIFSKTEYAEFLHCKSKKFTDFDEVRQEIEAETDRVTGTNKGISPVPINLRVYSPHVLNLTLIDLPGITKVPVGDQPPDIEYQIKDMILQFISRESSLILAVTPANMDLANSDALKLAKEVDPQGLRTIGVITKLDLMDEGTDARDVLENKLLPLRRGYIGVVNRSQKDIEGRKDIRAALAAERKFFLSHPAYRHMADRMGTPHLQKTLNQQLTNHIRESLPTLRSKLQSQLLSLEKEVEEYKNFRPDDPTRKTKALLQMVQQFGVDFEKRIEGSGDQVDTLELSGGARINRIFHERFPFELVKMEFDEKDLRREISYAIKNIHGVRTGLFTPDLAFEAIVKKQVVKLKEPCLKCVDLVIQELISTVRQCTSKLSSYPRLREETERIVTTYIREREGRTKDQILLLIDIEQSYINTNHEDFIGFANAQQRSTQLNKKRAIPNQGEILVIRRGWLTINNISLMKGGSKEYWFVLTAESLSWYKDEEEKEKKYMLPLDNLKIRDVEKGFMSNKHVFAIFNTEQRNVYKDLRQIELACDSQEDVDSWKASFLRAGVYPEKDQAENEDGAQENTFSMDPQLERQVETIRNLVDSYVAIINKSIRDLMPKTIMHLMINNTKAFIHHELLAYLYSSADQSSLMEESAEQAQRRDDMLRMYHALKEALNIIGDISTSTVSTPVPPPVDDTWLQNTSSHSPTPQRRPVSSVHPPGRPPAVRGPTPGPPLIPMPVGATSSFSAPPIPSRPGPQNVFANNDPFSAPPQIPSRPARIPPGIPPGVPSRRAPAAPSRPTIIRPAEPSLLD
In words: condition: approximately 24 nM SH36 with 30 nM GST-Dynamin 2.WT.

Experiment [2] deals with T1, GST-tagged wild-type (WT) Dynamin 2 (rat). As to the kind of experiment: pull-down.
Experiment [3] concerns the target GST-tagged fourth SH3 domain of Tuba (human) (UniProt Q6XZF7). As to the kind of experiment: pull-down.
Experiment [4] addresses GST-tagged first SH3 domain of Tuba (human) (UniProt Q6XZF7). As to the kind of experiment: pull-down.
Experiment [5] concerns the target GST fused to the SH31-4 region of Tuba (human) (UniProt Q6XZF7). As to the kind of experiment: pull-down.

With “SH36 domain of Tuba with its GST tag removed (from UniProt Q6XZF7) (domain or fragment)”, the binding entry in experiment [1] was “no binding”.

With “SH31-4 region of Tuba with its GST tag removed (from UniProt Q6XZF7) (domain or fragment)”, in experiment [2], the binding result is listed as “binds”.

With “Tuba isoform 2 (endogenous, Caco-2 BBE1 cells) (human (endogenous in Caco-2 BBE1))”, the binding result in experiment [2] was “no binding”.

B1: wild-type (WT) Dynamin 2 fused to enhanced green fluorescent protein (EGFP) (protein, UniProt P39052 1-870)
chain: MGNRGMEELIPLVNKLQDAFSSIGQSCHLDLPQIAVVGGQSAGKSSVLENFVGRDFLPRGSGIVTRRPLILQLIFSKTEYAEFLHCKSKKFTDFDEVRQEIEAETDRVTGTNKGISPVPINLRVYSPHVLNLTLIDLPGITKVPVGDQPPDIEYQIKDMILQFISRESSLILAVTPANMDLANSDALKLAKEVDPQGLRTIGVITKLDLMDEGTDARDVLENKLLPLRRGYIGVVNRSQKDIEGRKDIRAALAAERKFFLSHPAYRHMADRMGTPHLQKTLNQQLTNHIRESLPTLRSKLQSQLLSLEKEVEEYKNFRPDDPTRKTKALLQMVQQFGVDFEKRIEGSGDQVDTLELSGGARINRIFHERFPFELVKMEFDEKDLRREISYAIKNIHGVRTGLFTPDLAFEAIVKKQVVKLKEPCLKCVDLVIQELISTVRQCTSKLSSYPRLREETERIVTTYIREREGRTKDQILLLIDIEQSYINTNHEDFIGFANAQQRSTQLNKKRAIPNQGEILVIRRGWLTINNISLMKGGSKEYWFVLTAESLSWYKDEEEKEKKYMLPLDNLKIRDVEKGFMSNKHVFAIFNTEQRNVYKDLRQIELACDSQEDVDSWKASFLRAGVYPEKDQAENEDGAQENTFSMDPQLERQVETIRNLVDSYVAIINKSIRDLMPKTIMHLMINNTKAFIHHELLAYLYSSADQSSLMEESAEQAQRRDDMLRMYHALKEALNIIGDISTSTVSTPVPPPVDDTWLQNTSSHSPTPQRRPVSSVHPPGRPPAVRGPTPGPPLIPMPVGATSSFSAPPIPSRPGPQNVFANNDPFSAPPQIPSRPARIPPGIPPGVPSRRAPAAPSRPTIIRPAEPSLLD
In the case of B1, the binding entry in experiment [3], in experiment [4] and in experiment [5] was “binds” in each case.
